Results: US20090197263
Construct, isoform or probe ends are uncertain for at least one entry.

By UniProt entry, the sequences of proteins in these tests, tags left out. Residues count along the entry.
UniProt Q9UBB5, 145-213: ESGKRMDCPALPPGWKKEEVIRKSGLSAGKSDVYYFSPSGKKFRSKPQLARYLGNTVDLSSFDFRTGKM

Molecular target: MBD2-MBD (methyl-binding domain of MBD2) (Homo sapiens) (UniProt Q9UBB5)
Assay: FP
Details: purified recombinant protein, protein details: C-terminal 6xHis (pFBC6H baculovirus vector, Sf9), label: 5'-6FAM, folded or branched DNA

Sequence: ATCGTCGTACGTTTTCGTACGACGAT [3 asymmetrically methylated CpG hairpin]
- EC50 (5mC at the 3 CpGs toward the 3' end (C16, C20, C23), no appreciable binding in range tested, EC50>>10 uM suggested, variant of unmethylated hairpin): > 10 µM

Sequence: ATCGTCGTACGTTTTCGTACGACGAT [3 symmetrically methylated CpG hairpin]
- EC50 (5mC at all 6 CpGs (C3, C6, C10, C16, C20, C23), 10 nM hairpin, 50 mM NaCl, 1 mM MgCl2, 10 mM Tris pH 7.4, room temp, variant of unmethylated hairpin): 0.222 µM

Sequence: ATCGTCGTACGTTTTCGTACGACGAT [unmethylated hairpin]
- EC50 (no appreciable binding in range tested, EC50>>10 uM suggested): > 10 µM
